From the supplement of paper PMC6411743
± gives the standard deviation of the averaged measurements. The list shows a part of the results.

Chains of the proteins cited; added tags and fusions are not shown. Lines headed by an entry give the natural chain unless they say otherwise; changes in a name come on top.
UniProt P61968: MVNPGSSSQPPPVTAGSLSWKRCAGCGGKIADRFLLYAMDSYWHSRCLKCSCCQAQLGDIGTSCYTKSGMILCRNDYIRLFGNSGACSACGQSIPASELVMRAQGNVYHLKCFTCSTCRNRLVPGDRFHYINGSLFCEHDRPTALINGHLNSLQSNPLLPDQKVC
UniProt P62995: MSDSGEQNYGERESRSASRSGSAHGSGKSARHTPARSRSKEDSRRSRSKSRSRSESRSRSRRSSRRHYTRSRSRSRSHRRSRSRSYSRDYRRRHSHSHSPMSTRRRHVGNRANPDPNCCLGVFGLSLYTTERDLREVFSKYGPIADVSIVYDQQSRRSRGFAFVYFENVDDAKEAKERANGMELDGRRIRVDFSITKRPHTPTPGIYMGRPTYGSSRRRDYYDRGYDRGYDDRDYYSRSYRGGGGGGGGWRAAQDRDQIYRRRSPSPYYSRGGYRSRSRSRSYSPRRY
UniProt P55265: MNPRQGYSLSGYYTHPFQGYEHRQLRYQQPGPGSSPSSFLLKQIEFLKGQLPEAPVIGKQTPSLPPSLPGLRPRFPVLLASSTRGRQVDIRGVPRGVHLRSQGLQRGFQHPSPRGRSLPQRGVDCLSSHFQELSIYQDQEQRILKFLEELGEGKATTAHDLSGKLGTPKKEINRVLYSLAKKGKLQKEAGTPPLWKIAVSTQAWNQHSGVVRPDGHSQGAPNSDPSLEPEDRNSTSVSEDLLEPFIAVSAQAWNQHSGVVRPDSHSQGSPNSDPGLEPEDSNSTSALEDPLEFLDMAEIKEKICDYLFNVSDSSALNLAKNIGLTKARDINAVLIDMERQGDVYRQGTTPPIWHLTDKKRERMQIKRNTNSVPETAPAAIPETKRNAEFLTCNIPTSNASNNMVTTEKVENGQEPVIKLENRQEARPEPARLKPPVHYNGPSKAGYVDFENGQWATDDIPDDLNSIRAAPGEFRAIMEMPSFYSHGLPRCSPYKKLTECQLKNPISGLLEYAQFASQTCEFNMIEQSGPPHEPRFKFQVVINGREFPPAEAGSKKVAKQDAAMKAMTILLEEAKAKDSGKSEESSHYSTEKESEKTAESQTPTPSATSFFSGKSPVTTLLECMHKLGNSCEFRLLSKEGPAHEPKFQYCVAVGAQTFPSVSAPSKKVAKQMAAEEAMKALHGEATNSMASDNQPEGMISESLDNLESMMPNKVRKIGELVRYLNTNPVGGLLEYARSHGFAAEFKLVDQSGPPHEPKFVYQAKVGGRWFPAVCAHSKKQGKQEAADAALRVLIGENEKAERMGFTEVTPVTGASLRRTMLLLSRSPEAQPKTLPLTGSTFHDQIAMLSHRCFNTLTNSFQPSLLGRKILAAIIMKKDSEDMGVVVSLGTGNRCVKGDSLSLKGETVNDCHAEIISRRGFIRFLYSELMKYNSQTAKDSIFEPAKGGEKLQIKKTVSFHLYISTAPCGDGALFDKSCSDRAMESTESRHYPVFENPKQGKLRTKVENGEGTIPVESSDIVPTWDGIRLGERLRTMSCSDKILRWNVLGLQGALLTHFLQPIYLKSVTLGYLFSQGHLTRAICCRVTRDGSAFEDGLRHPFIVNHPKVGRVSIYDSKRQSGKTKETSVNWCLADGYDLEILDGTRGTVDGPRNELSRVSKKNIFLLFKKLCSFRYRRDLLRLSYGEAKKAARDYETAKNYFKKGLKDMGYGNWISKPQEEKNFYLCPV
UniProt P84090, whole entry, looked up: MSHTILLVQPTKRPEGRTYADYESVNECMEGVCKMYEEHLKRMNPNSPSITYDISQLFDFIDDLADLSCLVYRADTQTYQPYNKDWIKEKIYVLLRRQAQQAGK
UniProt P52735: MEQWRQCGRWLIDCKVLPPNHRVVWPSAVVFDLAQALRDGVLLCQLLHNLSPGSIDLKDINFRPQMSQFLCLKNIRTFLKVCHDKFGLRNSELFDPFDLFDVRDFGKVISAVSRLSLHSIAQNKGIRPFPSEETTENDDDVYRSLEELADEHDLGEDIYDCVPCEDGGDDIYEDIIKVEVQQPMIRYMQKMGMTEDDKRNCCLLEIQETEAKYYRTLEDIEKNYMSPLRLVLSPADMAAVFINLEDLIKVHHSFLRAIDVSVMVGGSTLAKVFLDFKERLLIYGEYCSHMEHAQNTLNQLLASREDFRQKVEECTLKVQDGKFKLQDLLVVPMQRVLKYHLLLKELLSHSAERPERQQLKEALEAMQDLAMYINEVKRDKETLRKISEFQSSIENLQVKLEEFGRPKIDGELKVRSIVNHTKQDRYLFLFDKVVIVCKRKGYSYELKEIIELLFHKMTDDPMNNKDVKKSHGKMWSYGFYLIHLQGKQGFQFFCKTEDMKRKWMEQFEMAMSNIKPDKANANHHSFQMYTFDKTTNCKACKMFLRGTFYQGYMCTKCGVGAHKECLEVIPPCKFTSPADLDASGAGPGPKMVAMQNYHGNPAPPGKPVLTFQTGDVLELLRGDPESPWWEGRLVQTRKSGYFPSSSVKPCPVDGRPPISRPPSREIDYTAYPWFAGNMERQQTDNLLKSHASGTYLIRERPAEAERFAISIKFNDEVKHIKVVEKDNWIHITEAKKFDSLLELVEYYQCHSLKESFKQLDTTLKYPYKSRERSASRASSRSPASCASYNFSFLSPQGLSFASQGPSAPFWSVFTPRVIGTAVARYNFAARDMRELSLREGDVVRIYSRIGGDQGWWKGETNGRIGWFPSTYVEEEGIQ
UniProt P51946: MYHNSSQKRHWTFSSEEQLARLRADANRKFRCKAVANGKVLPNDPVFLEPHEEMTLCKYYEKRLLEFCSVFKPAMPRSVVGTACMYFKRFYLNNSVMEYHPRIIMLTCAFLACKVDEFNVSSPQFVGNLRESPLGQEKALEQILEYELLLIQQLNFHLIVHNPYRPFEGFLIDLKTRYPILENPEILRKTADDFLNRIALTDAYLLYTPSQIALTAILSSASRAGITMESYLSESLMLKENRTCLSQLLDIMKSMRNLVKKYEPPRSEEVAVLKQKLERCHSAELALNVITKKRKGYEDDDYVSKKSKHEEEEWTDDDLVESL
UniProt P67809, whole entry: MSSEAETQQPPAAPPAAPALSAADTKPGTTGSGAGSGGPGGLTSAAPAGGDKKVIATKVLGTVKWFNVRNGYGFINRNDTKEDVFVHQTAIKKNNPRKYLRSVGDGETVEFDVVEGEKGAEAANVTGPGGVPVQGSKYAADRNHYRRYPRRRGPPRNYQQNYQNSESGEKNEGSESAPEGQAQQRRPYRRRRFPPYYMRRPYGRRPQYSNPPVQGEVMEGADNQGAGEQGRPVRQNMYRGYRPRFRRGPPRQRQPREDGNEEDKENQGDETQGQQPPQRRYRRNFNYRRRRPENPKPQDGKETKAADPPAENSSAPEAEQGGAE
UniProt P51572: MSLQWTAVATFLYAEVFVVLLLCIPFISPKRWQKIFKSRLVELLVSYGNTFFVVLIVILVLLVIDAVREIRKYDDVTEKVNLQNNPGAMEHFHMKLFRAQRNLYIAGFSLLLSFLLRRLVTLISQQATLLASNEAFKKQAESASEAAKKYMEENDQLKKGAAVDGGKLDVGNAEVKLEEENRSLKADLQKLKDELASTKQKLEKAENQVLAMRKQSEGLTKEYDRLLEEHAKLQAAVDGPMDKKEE
UniProt P61956, whole entry: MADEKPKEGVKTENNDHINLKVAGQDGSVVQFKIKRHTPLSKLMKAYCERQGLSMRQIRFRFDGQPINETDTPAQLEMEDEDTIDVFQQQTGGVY
UniProt P52294, whole entry: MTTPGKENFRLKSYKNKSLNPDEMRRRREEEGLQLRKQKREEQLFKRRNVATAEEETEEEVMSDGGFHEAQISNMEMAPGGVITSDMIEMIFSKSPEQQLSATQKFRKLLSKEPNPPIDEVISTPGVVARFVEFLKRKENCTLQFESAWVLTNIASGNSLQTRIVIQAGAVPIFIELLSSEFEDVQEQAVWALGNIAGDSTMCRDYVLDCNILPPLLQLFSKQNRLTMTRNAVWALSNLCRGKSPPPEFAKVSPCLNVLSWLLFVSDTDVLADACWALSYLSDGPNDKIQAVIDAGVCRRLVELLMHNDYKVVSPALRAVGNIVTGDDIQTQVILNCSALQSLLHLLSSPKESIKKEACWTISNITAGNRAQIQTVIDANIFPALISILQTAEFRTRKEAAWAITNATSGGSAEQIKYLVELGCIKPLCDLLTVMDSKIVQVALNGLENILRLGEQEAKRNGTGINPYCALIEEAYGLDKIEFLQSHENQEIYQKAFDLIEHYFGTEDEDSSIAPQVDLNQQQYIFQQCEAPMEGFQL

Compound: Nc1nc2c(ncn2[C@@H]2O[C@H](COP(=O)(O)OP(=O)(O)OP(=O)(O)O)[C@@H](O)[C@H]2O)c(=O)[nH]1 [guanosine triphosphate]
Assay: NP40-soluble protein abundance relative to vehicle (solubility fold change) (ratio); higher = more soluble protein in presence of GTP
In short: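 Jurkat crude lysate prepared with a Dounce homogeniser was treated at eight concentrations spanning 0.1 to 10 mM, 10 min at room temperature then 3 min at 37 °C. Solubilisation with 0.8% NP40 and benzonase and ultracentrifugation preceded TMT labelling of the supernatant for LC-MS/MS. Fold change against the detergent-processed vehicle was determined per replicate from vsn-normalised intensities, across three independent experiments.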

Target | NP40-soluble protein abundance (concentration: 0.1mM) | NP40-soluble protein abundance (concentration: 0.5mM) | NP40-soluble protein abundance (concentration: 1mM) | NP40-soluble protein abundance (concentration: 2mM) | NP40-soluble protein abundance (concentration: 4mM) | NP40-soluble protein abundance (concentration: 6mM) | NP40-soluble protein abundance (concentration: 8mM) | NP40-soluble protein abundance (concentration: 10mM)
LMO4 (UniProt P61968) | 0.979 ± 0.11 | 1.05 ± 0.14 | 1.02 ± 0.089 | 1.07 ± 0.26 | 0.95 ± 0.14 | 1.02 ± 0.13 | 0.953 ± 0.082 | 1.01 ± 0.24
UniProt P62995 and related entries | 1.08 ± 0.077 | 1.36 ± 0.24 | 1.64 ± 0.54 | 1.73 ± 0.47 | 1.61 ± 0.64 | 1.54 ± 0.58 | 1.54 ± 0.62 | 1.41 ± 0.64
UniProt P55265 and related entries | 1.01 ± 0.061 | 1.06 ± 0.059 | 1.04 ± 0.063 | 1.09 ± 0.082 | 1.13 ± 0.09 | 1.17 ± 0.099 | 1.18 ± 0.085 | 1.13 ± 0.069
CAPZA1 (UniProt P52907) | 0.915 ± 0.084 | 0.955 ± 0.091 | 0.912 ± 0.054 | 0.92 ± 0.07 | 0.916 ± 0.088 | 0.924 ± 0.094 | 0.912 ± 0.077 | 0.904 ± 0.093
UniProt P84090 | 1.06 ± 0.1 | 1.02 ± 0.06 | 1.26 ± 0.18 | 1.34 ± 0.11 | 1.42 ± 0.16 | 1.54 ± 0.1 | 1.65 ± 0.14 | 1.95 ± 0.38
UniProt P52735 and related entries | 1.11 ± 0.081 | 1.03 ± 0.084 | 1 ± 0.085 | 0.943 ± 0.084 | 0.985 ± 0.12 | 0.99 ± 0.084 | 0.954 ± 0.087 | 0.889 ± 0.09
CCNH (UniProt P51946) | 0.995 ± 0.068 | 1.03 ± 0.026 | 0.99 ± 0.034 | 0.964 ± 0.035 | 0.943 ± 0.035 | 0.982 ± 0.033 | 0.987 ± 0.099 | 0.967 ± 0.028
YBX1 (UniProt P67809) | 0.913 ± 0.077 | 0.937 ± 0.14 | 1.09 ± 0.079 | 1.04 ± 0.17 | 0.991 ± 0.1 | 1.03 ± 0.13 | 1.073 ± 0.01 | 1.09 ± 0.11
UniProt P51157 and related entries | 0.975 ± 0.039 | 0.981 ± 0.076 | 0.93 ± 0.036 | 0.966 ± 0.01 | 0.934 ± 0.014 | 0.934 ± 0.034 | 0.951 ± 0.017 | 0.894 ± 0.018
UniProt P62899 | 0.879 ± 0.036 | 0.945 ± 0.089 | 0.962 ± 0.12 | 0.932 ± 0.051 | 0.939 ± 0.14 | 0.981 ± 0.18 | 0.821 ± 0.046 | 1.21 ± 0.28
UniProt P51572 and related entries | 0.89 ± 0.041 | 0.914 ± 0.071 | 0.996 ± 0.052 | 0.988 ± 0.074 | 1.02 ± 0.087 | 1.11 ± 0.078 | 1.09 ± 0.042 | 1.16 ± 0.066
UniProt P61956 and related entries | 0.914 ± 0.077 | 0.853 ± 0.055 | 1.11 ± 0.12 | 0.994 ± 0.078 | 1.03 ± 0.036 | 1.02 ± 0.084 | 1.04 ± 0.13 | 1.01 ± 0.049
KPNA1 (UniProt P52294) | 1.06 ± 0.044 | 1.08 ± 0.041 | 1.04 ± 0.042 | 1.06 ± 0.059 | 1.06 ± 0.04 | 1.05 ± 0.061 | 1.1 ± 0.079 | 1.057 ± 0.0089
KPNA2 (UniProt P52292) | 0.994 ± 0.025 | 0.961 ± 0.027 | 1.02 ± 0.013 | 1 ± 0.024 | 1.041 ± 0.0083 | 1.032 ± 0.0091 | 1.051 ± 0.0056 | 1.03 ± 0.038

Taken from the listing for reference:
Target | NP40-soluble protein abundance (concentration: 0.1mM) | NP40-soluble protein abundance (concentration: 0.5mM) | NP40-soluble protein abundance (concentration: 1mM) | NP40-soluble protein abundance (concentration: 2mM) | NP40-soluble protein abundance (concentration: 4mM) | NP40-soluble protein abundance (concentration: 6mM) | NP40-soluble protein abundance (concentration: 8mM) | NP40-soluble protein abundance (concentration: 10mM)
UniProt P52735 and related entries | 1.11 ± 0.081 | 1.03 ± 0.084 | 1 ± 0.085 | 0.943 ± 0.084 | 0.985 ± 0.12 | 0.99 ± 0.084 | 0.954 ± 0.087 | 0.889 ± 0.09
CCNH (UniProt P51946) | 0.995 ± 0.068 | 1.03 ± 0.026 | 0.99 ± 0.034 | 0.964 ± 0.035 | 0.943 ± 0.035 | 0.982 ± 0.033 | 0.987 ± 0.099 | 0.967 ± 0.028
